Taken from: PubChem BioAssay AID743121 (NCATS, 2013)

Screen: 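Genes whose silencing strengthens cell killing by camptothecin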 (primary screen)
Cells: MDA-MB-231 cells, a human breast cancer line
Reagents: single siRNA against human genes, 20 nM siRNA (0.8 pmol per well)
Timing: 120 h (drug added 48 h after transfection, read 72 h later)
Treatment: camptothecin 20 nM (about EC30) for 72 h; vehicle 0.1% DMSO in parallel plates
Measurement: 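Cell viability by ATP luminescence (CellTiter-Glo) as % of non-targeting siRNA wells, and the log2 ratio of viability without drug over viability with camptothecin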
Reading the numbers: log2 vehicle/camptothecin viability: higher = stronger sensitisation to camptothecin; viability with camptothecin: higher = more viable cells
Hit rule: 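Each gene scored by redundant siRNA activity (RSA) over its individual siRNA ratios; a gene is called active at p < 0.001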
The deposit covers about 26,000 reagents; shown is a part drawn at random. In the full data, 167 (0.63%) got an active call. 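Calls are per gene from RSA p-values that are not deposited; an individual active-marked siRNA can sensitise only weakly.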 A number with no mark means an inactive call. The numbers tell different reagents against one gene apart. Not all columns of the deposit are shown.

log2 vehicle/camptothecin viability	viability with camptothecin (% of control)	target	reagent no.
-0.475	79	PFKFB2 (GeneID 5208)	1
-0.161	82.3	PFKFB2 (GeneID 5208)	2
0.63	41.7	PFKFB2 (GeneID 5208)	3
0.184	89.9	PFKFB2 (GeneID 5208)	4
-0.0259	102	NCOA7 (GeneID 135112)	1
-0.154	35.1	NCOA7 (GeneID 135112)	2
-0.0924	44.6	NCOA7 (GeneID 135112)	3
-0.0557	106	NCOA7 (GeneID 135112)	4
0.293	65.2	PPP1R14A (GeneID 94274)	1
-0.477	71.9	PPP1R14A (GeneID 94274)	2
0.635	31	PPP1R14A (GeneID 94274)	3
-0.387	111	PPP1R14A (GeneID 94274)	4
-0.443	86.6	HR (GeneID 55806)	1
-0.0431	88.9	HR (GeneID 55806)	2
0.185	48.3	HR (GeneID 55806)	3

Next part; the last 2 above are carried over.
log2 vehicle/camptothecin viability	viability with camptothecin (% of control)	target	reagent no.
-0.0431	88.9	HR (GeneID 55806)	2
0.185	48.3	HR (GeneID 55806)	3
-0.473	71.4	TMEM87A (GeneID 25963)	1
-0.158	79.8	TMEM87A (GeneID 25963)	2
0.259	70	TMEM87A (GeneID 25963)	3
-0.023	91.3	C8B (GeneID 732)	1
-0.15	21.4	C8B (GeneID 732)	2
-0.063	44.6	C8B (GeneID 732)	3
0.0613	55.6	C8B (GeneID 732)	4
-0.313	86.6	HEATR5A (GeneID 25938)	1
-0.0379	68.5	HEATR5A (GeneID 25938)	2
-0.71	91.1	HEATR5A (GeneID 25938)	3
-0.109	105	HEATR5A (GeneID 25938)	4
-0.0499	86	PLA2G5 (GeneID 5322)	1
-0.187	101	PLA2G5 (GeneID 5322)	2
0.014	94.6	PLA2G5 (GeneID 5322)	3
-0.523	49	PLA2G5 (GeneID 5322)	4
